According to publication doi:10.1101/580506:
These are yes or no findings as the source states them, for the method shown. In cells and extracts the contact can be indirect. Some entries that bind do so weakly or less than the wild type.

The chains behind the UniProt entries cited, without tags or fusion partners. Residues count along the entry.
UniProt Q15116, residues 25-288: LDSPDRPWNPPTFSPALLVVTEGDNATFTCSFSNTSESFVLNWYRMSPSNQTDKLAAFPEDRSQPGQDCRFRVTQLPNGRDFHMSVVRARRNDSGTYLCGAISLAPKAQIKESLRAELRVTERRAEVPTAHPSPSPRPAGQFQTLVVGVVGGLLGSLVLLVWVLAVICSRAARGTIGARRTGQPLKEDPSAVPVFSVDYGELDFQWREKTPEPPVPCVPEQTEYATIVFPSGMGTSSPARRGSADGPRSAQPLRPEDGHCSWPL
UniProt P35372: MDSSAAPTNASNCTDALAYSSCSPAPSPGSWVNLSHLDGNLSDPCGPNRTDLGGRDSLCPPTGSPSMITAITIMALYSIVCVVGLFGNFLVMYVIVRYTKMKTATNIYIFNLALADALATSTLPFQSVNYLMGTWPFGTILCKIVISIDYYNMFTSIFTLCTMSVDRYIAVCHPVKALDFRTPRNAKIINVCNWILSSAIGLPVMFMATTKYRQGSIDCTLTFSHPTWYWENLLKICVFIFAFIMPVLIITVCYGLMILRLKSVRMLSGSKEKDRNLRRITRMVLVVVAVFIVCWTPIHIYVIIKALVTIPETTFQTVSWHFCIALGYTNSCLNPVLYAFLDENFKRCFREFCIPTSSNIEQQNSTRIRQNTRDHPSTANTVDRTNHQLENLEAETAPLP

Experiments:
[1] = molecular target: Programmed cell death protein-1 (PD-1), human (human (endogenous in spinal nerve)) (UniProt Q15116); test: co-IP
[2] = molecular target: mu opioid receptor (MOR), human (human (endogenous in spinal nerve)) (UniProt P35372); test: co-IP

| Substance | binding [1] | binding [2] |
| --- | --- | --- |
| mu opioid receptor (MOR), human (from UniProt P35372 1-400) | binds |  |
| Programmed cell death protein-1 (PD-1), human (from UniProt Q15116 25-288) (receptor) |  | binds |
